# Assay results published in PubChem BioAssay AID2685 (National Center for Advancing Translational Sciences (NCATS), 2010).
# About 2,100 (0.66%) of roughly 320,000 compounds were called active. The shares of active, inactive and inconclusive entries below differ from those in the screen. Calls come from the whole dose curve; as a rule, active = well fitted inhibition curve with a large enough effect in the signal ratio, with a control signal flat (not every such curve was filed as active); inconclusive = small, poorly fitted or top-dose-only effect, or effect the other way, or a change in a side signal; inactive = flat fitted curve, though single readings scatter; the % refers to the signal ratio. Potencies of inconclusive entries are doubtful fits and often do not repeat.
# Assay: qHTS Assay for Lipid Storage Modulators in Drosophila S3 Cells
# Details: BODIPY lipid droplet fluorescence, 18-24 h, cells fed with added oleic acid; lipid storage change, negative = inhibition: at 46.1 µM (top of the series) unless noted
# Method in brief: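 Drosophila S3 cells got compounds at several concentrations plus oleic acid (400 uM solution). Laser-scanning cytometry with 488 nm excitation read lipid droplets at 500-530 nm and cells at 575-640 nm. Percent activity was relative to 20 uM Triacsin C.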
# % is set by controls: 0 for no effect and ±100 for the full control effect; potency is the fitted concentration of half-maximal effect.
SMILES,"lipid storage change, negative = inhibition",Potency
COc1ccc(N(CC(=O)Nc2ccc(OC)c(Cl)c2)S(=O)(=O)c2c(C)noc2C)cc1,inconclusive: 16.5%,
O=C(CNC(=O)c1ccc(N2C(=O)c3ccccc3C2=O)cc1)OCC(=O)c1ccccc1,,"inconclusive: 206 nM [falling, full curve, poor fit]"
COc1ccc(-c2csc(Nc3ccccc3)n2)cc1,inconclusive: 19.9%,
CC1Cc2ccccc2N1C(=O)COC(=O)c1cc(Br)ccc1O (stereo unspecified),inconclusive,
O=C(NCc1ccccn1)c1nnc(Cc2ccc(Cl)cc2)o1,inconclusive: -0.112%,
Cc1nc2cc(Cl)ccc2n1-c1ccccc1,inconclusive: 11.5%,
Cc1ccccc1CNC(=O)C(=O)NCC1OCCCN1S(=O)(=O)c1ccc(F)cc1C (stereo unspecified),,"inconclusive: 16400 nM [activator, single point]"
CCOc1ccc(C(=O)Nc2cc(-c3nc4ccccc4[nH]3)ccc2Cl)cc1[N+](=O)[O-],inconclusive: 48.5%,
C/C(=C1/C(=O)N(c2ccc([N+](=O)[O-])cc2)N=C1c1ccccc1)N(C)C,inconclusive: 10.5%,
Oc1c(C(Nc2ccccn2)c2ccccn2)ccc2cccnc12 (stereo unspecified),inconclusive: 7.66%,
Cc1cc(C)nc(NC(=O)CSc2nnnn2-c2ccccc2)n1,inconclusive: 6.29%,
Cc1ccc(-c2nc(CS(=O)(=O)CC(=O)NCCN3CCOCC3)c(C)o2)cc1,inconclusive: 66.3%,
CCN(c1ccccc1)S(=O)(=O)c1ccc(Cl)c(NC(=O)CN2CCCCCC2)c1,inconclusive: -86.2%,
N#Cc1ccccc1S(=O)(=O)N1CCN(C(=O)CN2CCCSc3ccccc32)CC1,,active: 2060 nM
C/C(=N/NS(=O)(=O)c1ccc(C)cc1)c1ccc(NC(=O)C(F)(F)F)cc1,inconclusive: 9.98%,
CCOc1ccccc1NS(=O)(=O)c1cn(C)c(=O)n(C)c1=O,inconclusive: 14.2%,
Clc1ccc(-c2n[nH]c3c2CCC3)c(Cl)c1,inconclusive: 11.8%,
COC(=O)c1ccc(C(=O)OC)c(NC(=S)N2CCC(C)CC2)c1,inconclusive: 7.33%,
O=C(O)c1cccc(NC(=O)c2cccc(S(=O)(=O)N3CCc4ccccc4C3)c2)c1,inconclusive: 16.5%,
Cc1c(O)ccc(C(=O)CN2CCN(c3ccc(F)cc3)CC2)c1O,,"inconclusive: 29100 nM [activator, partial curve, poor fit]"
COc1ccc2c(C(=O)c3ccc(C)cc3)n(CCC(N)=O)[n+]([O-])c2c1,inconclusive: 2.35%,
Clc1cccc(/C(Cc2nc3ccccc3[nH]2)=N\Nc2ccccc2)c1,inconclusive: -25.6%,
COc1ccc(CNC(=O)Cn2ccc(NC(=O)OCc3ccccc3)nc2=O)cc1,inconclusive: 24.9%,
CCc1cc2c(=O)c(-c3cscn3)coc2cc1O,,"inconclusive: 29100 nM [activator, single point]"
CCOC(=O)N1CCN(CCC(=O)Nc2cc(C)ccc2C)CC1,inconclusive: -106%,
CCN(CCn1cccn1)Cc1nc(-c2ccc(C(=O)OC)cc2)no1,,"inconclusive: 184 nM [falling, full curve]"

SMILES,"lipid storage change, negative = inhibition",Potency
O=C(NCC(=O)N(c1ccccc1)C(C(=O)NC1CCCCC1)c1cccnc1)c1ccco1 (stereo unspecified),inconclusive: 6.23%,
O=C(NC(=S)Nc1ccc(N2CCOCC2)c(Cl)c1)c1cncc(Br)c1,inconclusive: -31.8%,
Cc1ccc(OCC(=O)n2cnnc2N)c(C)c1,inactive: 16.4%,
C=CCn1c(SCC(=O)N2c3ccccc3Sc3ccccc32)nnc1-c1ccco1,inconclusive: -18.8%,
N=C(N)SCc1cccc2ccccc12,inconclusive: -27.3%,
C=CCn1c(SCc2nc3c(c(=O)[nH]c(=O)n3CCCC)n2CCC)nnc1-c1ccccc1,inconclusive: 50.1%,
FC(F)(F)c1cccc(Cc2noc(CN3CCC(c4ccncc4)CC3)n2)c1,,"inconclusive: 29100 nM [cytotoxic, single point]"
COCCNC(=S)N/N=C1\CC(C)CC(C)(C)C1 (stereo unspecified),inconclusive: 4.85%,
COc1cc(-c2nc(-c3ccccc3)c(-c3ccc(F)cc3)[nH]2)cc2c1OCO2,inconclusive: 25.7%,
O=S(=O)(NCc1ccccn1)c1ccc(Cl)c(C(F)(F)F)c1,,"inconclusive: 1840 nM [activator, full curve]"
O=C(C1CCCCC1)N1CCN(c2ccccc2F)CC1,inconclusive: 53.8%,
Cc1ccc(COn2c(-c3ccc(Cl)cc3)nc3ccc([N+](=O)[O-])cc32)cc1,,"inconclusive: 10.3 nM [falling, single point]"
CCOc1ccc(S(=O)(=O)N2CCCCC2)cc1NC(=O)CN1C(=O)NC(C)(C2CC2)C1=O (stereo unspecified),,"inconclusive: 920 nM [falling, full curve]"
COc1cccc(NC(=O)CSc2nc3scc(C)c3c(=O)[nH]2)c1,,active: 580 nM
O=C(Oc1ccc2c(c1)OCO2)c1ccncc1,inconclusive: 6.57%,
O=C(Nc1cccc(C(=O)N2CCOCC2)c1)c1ncn[nH]1,,"inconclusive: 184 nM [falling, full curve]"
NNC(=O)c1cc2cc(Oc3ccccc3)ccc2[nH]1,,"inconclusive: 29100 nM [falling, single point]"
Nc1ccc(-c2sc(N)nc2-c2ccccc2)cc1,inconclusive: 1.06%,
CCN(CC)CCNc1nc2c(c(=O)[nH]c(=O)n2C)n1CCCc1ccccc1,inconclusive: 103%,
CC1CCN(c2ccc3nnc(CCC(=O)Nc4ccc(F)c(F)c4)n3n2)CC1,inconclusive: 177%,
O=C(NC(=S)Nc1ccc(N2CCOCC2)cc1)c1ccccc1,,"inconclusive: 2910 nM [falling, single point]"
CC(=O)Nc1ccc(NC(=O)CSc2nc(C)nc3sc(C)c(C)c23)cc1,inconclusive: -21.3%,
Cc1ccc(C(C)C)c(OCC(=O)OCC(=O)NC2CCS(=O)(=O)C2)c1 (stereo unspecified),inconclusive,
COc1ccc(Nc2nc(C)cc(C)n2)cc1Cl,inconclusive: 210%,
O=C(CCl)Nc1c[nH]c(=O)[nH]c1=O,inconclusive: 64%,

# Single values from above.
# Potency, COc1cccc(NC(=O)CSc2nc3scc(C)c3c(=O)[nH]2)c1 reads active: 580 nM
# lipid storage change, negative = inhibition, C=CCn1c(SCC(=O)N2c3ccccc3Sc3ccccc32)nnc1-c1ccco1 reads inconclusive: -18.8%
